No constants are given. Whether binding was seen depends on the method and setting. Binding seen in cells or lysates may run through a third protein. For some assays here: Binding can be weak; no strength is given. Sequences can lack the tags named with a protein.

Assay [1] deals with AKAP9 C-terminus (a.a. 3643–3907) containing the PACT domain (human). Description: co-IP; HEK293T cells co-expressing both proteins; lysis buffer 20 mM Tris/HCl pH 7.5, 50 mM NaCl, 1% TritonX-100, 5 mM EGTA, 1 mM DTT, 2 mM MgCl2; IP with FLAG antibody-conjugated M2 agarose, 2 h at 4 °C; western blotting. A general note: In western blotting, separated proteins are transferred to a membrane and probed.

Assay [2] addresses FLAG-PCNT ΔPACT (C-terminal fragment lacking the region of a.a. 3139–3216) (human). The assay is described as above.

B1: HA-Cep57 (centrosomal protein of 57 kDa, full length) (protein, UniProt Q86XR8-1 1-500)
chain: MAAASVSAASGSHLSNSFAEPSRSNGSMVRHSSSPYVVYPSDKPFLNSDLRRSPSKPTLAYPESNSRAIFSALKNLQDKIRRLELERIQAEESVKTLSRETIEYKKVLDEQIQERENSKNEESKHNQELTSQLLAAENKCNLLEKQLEYMRNMIKHAEMERTSVLEKQVSLERERQHDQTHVQSQLEKLDLLEQEYNKLTTMQALAEKKMQELEAKLHEEEQERKRMQAKAAELQTGLETNRLIFEDKATPCVPNARRIKKKKSKPPEKKSSRNYFGAQPHYRLCLGDMPFVAGKSTSPSHAVVANVQLVLHLMKQHSKALCNDRVINSIPLAKQVSSRGGKSKKLSVTPPSSNGINEELSEVLQTLQDEFGQMSFDHQQLAKLIQESPTVELKDKLECELEALVGRMEAKANQITKVRKYQAQLEKQKLEKQKKELKATKKTLDEERNSSSRSGITGTTNKKDFMKLRPGEKRRKNLQLLKDMQSIQNSLQSSSLCWDY
B1: the binding entry in assay [1] is listed as “binds”; in assay [2], “no binding”.

These data come from article PMC6389942.
